PubChem BioAssay AID743121 – NCATS | 2013
In all, the deposit lists about 26,000 reagents; shown is a random part of them. 167 of all reagents (0.63%) were called active. 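Calls are per gene from RSA p-values that are not deposited; an individual active-marked siRNA can sensitise only weakly.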 Reagents against one gene are numbered here. Not all columns of the deposit are shown. Reagent sequences are not shown.

- Screen: 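Knock-downs that sensitise breast cancer cells to camptothecin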 (primary screen)
- Cell system: MDA-MB-231 cells, a human breast cancer line
- Knock-down reagent: single siRNA against human genes, 20 nM siRNA (0.8 pmol per well)
- Timing: 120 h (drug added 48 h after transfection, read 72 h later)
- Treatment: camptothecin 20 nM (about EC30) for 72 h; vehicle 0.1% DMSO in parallel plates
- Measurement: 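Cell viability by ATP luminescence (CellTiter-Glo) as % of non-targeting siRNA wells, and the log2 ratio of viability without drug over viability with camptothecin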
- Scale: log2 vehicle/camptothecin viability: higher = stronger sensitisation to camptothecin
- Hit rule: 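Active genes have an RSA gene-level p-value below 0.001, computed from the ratios of their separate siRNAs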

Depletion of POMZP3 (POM121 and ZP3 fusion) #1 gave: log2 vehicle/camptothecin viability 0.000804; inactive.
Against POMZP3 (POM121 and ZP3 fusion) #2, the values are log2 vehicle/camptothecin viability -0.425; inactive.
With knock-down of POMZP3 (POM121 and ZP3 fusion) #3, the record shows log2 vehicle/camptothecin viability -0.492; inactive.
PRKCE (protein kinase C epsilon) #1 gave log2 vehicle/camptothecin viability -0.253; inactive.
Knock-down of PRKCE (protein kinase C epsilon) #2 resulted in: log2 vehicle/camptothecin viability -0.0206; inactive.
After knock-down of PRKCE (protein kinase C epsilon) #3 the results were log2 vehicle/camptothecin viability 0.114; inactive.
PRKCE (protein kinase C epsilon) #4 gave log2 vehicle/camptothecin viability -0.114; inactive.
BRSK2 (BR serine/threonine kinase 2) #1 showed log2 vehicle/camptothecin viability -0.0855; inactive.
BRSK2 (BR serine/threonine kinase 2) #2 scored log2 vehicle/camptothecin viability -0.335; inactive.
BRSK2 (BR serine/threonine kinase 2) #3 showed log2 vehicle/camptothecin viability -0.507; inactive.
With knock-down of BRSK2 (BR serine/threonine kinase 2) #4, the screen gave log2 vehicle/camptothecin viability -0.571; inactive.
After knock-down of PYCARD (PYD and CARD domain containing) #1, the screen gave log2 vehicle/camptothecin viability -0.465; inactive.
PYCARD (PYD and CARD domain containing) #2 showed log2 vehicle/camptothecin viability -0.343; inactive.
Against PYCARD (PYD and CARD domain containing) #3, the entry reads log2 vehicle/camptothecin viability -0.287; inactive.
Silencing of PYCARD (PYD and CARD domain containing) #4 resulted in: log2 vehicle/camptothecin viability -0.636; inactive.
SETMAR (SET and mariner transposase domain methyltransferase) #1 gave log2 vehicle/camptothecin viability 0.663; inactive.
SETMAR (SET and mariner transposase domain methyltransferase) #2 scored log2 vehicle/camptothecin viability -0.375; inactive.
After knock-down of SETMAR (SET and mariner transposase domain methyltransferase) #3, the record shows log2 vehicle/camptothecin viability 0.191; inactive.
Depletion of SETMAR (SET and mariner transposase domain methyltransferase) #4 resulted in: log2 vehicle/camptothecin viability -0.249; inactive.

A portion of the results above, as a working copy:
PRKCE (protein kinase C epsilon) #1 | log2 vehicle/camptothecin viability = -0.253; Call = inactive
PRKCE (protein kinase C epsilon) #2 | log2 vehicle/camptothecin viability = -0.0206; Call = inactive
PRKCE (protein kinase C epsilon) #3 | log2 vehicle/camptothecin viability = 0.114; Call = inactive
PRKCE (protein kinase C epsilon) #4 | log2 vehicle/camptothecin viability = -0.114; Call = inactive
BRSK2 (BR serine/threonine kinase 2) #1 | log2 vehicle/camptothecin viability = -0.0855; Call = inactive

The results go on:
Depletion of GALR2 (galanin receptor 2) #1 gave: log2 vehicle/camptothecin viability -0.225; inactive.
With knock-down of GALR2 (galanin receptor 2) #2, the screen gave log2 vehicle/camptothecin viability 0.00144; inactive.
For GALR2 (galanin receptor 2) #3, the entry reads log2 vehicle/camptothecin viability -0.304; inactive.
For GALR2 (galanin receptor 2) #4, the entry reads log2 vehicle/camptothecin viability -0.475; inactive.
For MSH2 (mutS homolog 2) #1, the values are log2 vehicle/camptothecin viability -0.22; inactive.
Depletion of MSH2 (mutS homolog 2) #2 came out at: log2 vehicle/camptothecin viability -0.303; inactive.
Against MSH2 (mutS homolog 2) #3, the values are log2 vehicle/camptothecin viability 0.0911; inactive.
Against MSH2 (mutS homolog 2) #4, the values are log2 vehicle/camptothecin viability 1.11; inactive.
For CCNL1 (cyclin L1) #1, the values are log2 vehicle/camptothecin viability -0.246; inactive.
Against CCNL1 (cyclin L1) #2 the deposit lists log2 vehicle/camptothecin viability -0.0939; inactive.
Knock-down of CCNL1 (cyclin L1) #3 came out at: log2 vehicle/camptothecin viability -0.0325; inactive.
Depletion of CCNL1 (cyclin L1) #4 came out at: log2 vehicle/camptothecin viability 0.0448; inactive.
IGFBP3 (insulin like growth factor binding protein 3) #1 gave log2 vehicle/camptothecin viability -0.448; inactive.
Depletion of IGFBP3 (insulin like growth factor binding protein 3) #2 resulted in: log2 vehicle/camptothecin viability -0.153; inactive.
IGFBP3 (insulin like growth factor binding protein 3) #3 scored log2 vehicle/camptothecin viability 0.126; inactive.
Knock-down of ZEB2 (zinc finger E-box binding homeobox 2) #1 gave: log2 vehicle/camptothecin viability 0.00523; inactive.
ZEB2 (zinc finger E-box binding homeobox 2) #2 showed log2 vehicle/camptothecin viability 0.0599; inactive.
For ZEB2 (zinc finger E-box binding homeobox 2) #3, the entry reads log2 vehicle/camptothecin viability -0.395; inactive.
Silencing of ZEB2 (zinc finger E-box binding homeobox 2) #4 resulted in: log2 vehicle/camptothecin viability 0.073; inactive.
